Test results as given in patent US20250228235A1, “METHODS TO IMPROVE ORRGAN VIABILITY” (Mallinckrodt Pharmaceuticals Ireland Limited, priority 2017, published 2025).

Tested on: 4-week-old swine
Test: Blinded, randomized, controlled pediatric swine asphyxial model of cardiac arrest (survival, cerebral blood flow, hemodynamics)
Assay type: in vivo
Conditions: iNO 20 ppm vs placebo
Text: Neurologic injury following pediatric cardiac arrest (CA) remains common. Inhaled nitric oxide (iNO) may mitigate cerebral mitochondrial dysfunction, a critical convergence point for secondary brain injury, triggered by CA. It was hypothesized that following asphyxia and cardiac arrest, animals treated with 20 ppm iNO during CPR and four hours post-return of spontaneous circulation (ROSC) will have improved cerebral blood flow (CBF) and improved mitochondrial function as defined by increased respiratory control ratio (RCR) and decreased mitochondrial reactive oxygen species (mtROS) compared with placebo.
4-week-old swine received 7 minutes of asphyxia, then ventricular fibrillation. Guideline CPR was performed with compression depth (CD)≥⅓ of the chest diameter and standard epinephrine continued for 10 mins or until ROSC, with protocolized post-ROSC care. In a blinded fashion, subjects were randomized (iNO 20 ppm initiated 1 minute into CPR period, n=10, or placebo, n=10). […] Baseline and continuous CBF measurements were taken using invasive clinical and non-invasive optical instrumentation. Cortical and hippocampal tissue were analyzed by high-resolution respirometry to assess mitochondrial function. T-tests and ANOVA were used where applicable. Longitudinal hemodynamic variables were compared using generalized estimating equations to control for within-subject correlation.

[N]=O [iNO, nitric oxide]
systemic or pulmonary hemodynamics: no differences
